In this assay the test system is L1210 leukemia ip in BDF1 mice, survival T/C. As to the kind of experiment: NCI In Vivo Anticancer Drug Screen. Data for tumor model L1210 Leukemia (intraperitoneal) in B6D2F1 (BDF1) mice. Conditions: T/C endpoint: mean survival time, higher T/C = longer survival.
The mark [1] stands for this setting: dose: 200.0 mg/kg/injection, schedule: Q01DX001 (ip), vehicle: carboxymethylcellulose (CMC).
Setting [2] is: dose: 400.0 mg/kg/injection, schedule: Q01DX001 (ip), vehicle: carboxymethylcellulose (CMC).
Setting [3] is: dose: 400.0 mg/kg/injection, schedule: Q04DX003 (ip), vehicle: saline.
Where [4] appears, read: dose: 400.0 mg/kg/injection, schedule: Q01DX001 (ip), vehicle: saline.

The list does not hold the whole screen: it gathers tests that were run many times, whatever their T/C, doses with no T/C, and many T/C values between a quarter and a half above the control. Further doses and runs are listed elsewhere. T/C: endpoint of the treated group in % of that of the vehicle group. Some entries give survivors of the animals treated and no T/C: the source holds a T/C of zero for them, seemingly a mark for toxic or unscored doses. Some survivor counts are full or nearly so, which does not show that the dose was tolerated: survival well below the control is almost never listed, so the zero probably covers shortened survival too. Survivors were counted at the toxicity check, usually on the fifth day, unless a day is given; later deaths do not show. Schedules are NCI's codes, read here as Q, the interval in days (D) or hours (H), X, the number of doses. Some entries were tested several times; their values stand side by side, smallest first. Some schedule codes hold Z or #, which are not explained here. Where survival is the endpoint, this PubChem deposit counts one and a half times the control or more as active, and values a quarter to a half above the control carry no call in these data; other NCI protocols may use other cut-offs.

For `O=C1C=CC(=O)c2cc3ccccc3cc21`, the survivor count is on record as 2 of 4 under setting [1] and 2 of 4 under setting [2].

In the case of `Cc1cc(=O)oc2c(CN3CCCCC3)c(O)ccc12`, the survivor count reads like this: (dose: 40.0 mg/kg/injection, schedule: Q01DX001 (ip), vehicle: carboxymethylcellulose (CMC)) 2 of 4; (dose: 80.0 mg/kg/injection, schedule: Q01DX001 (ip), vehicle: carboxymethylcellulose (CMC)) 0 of 4; (dose: 100.0 mg/kg/injection, schedule: Q01DX001 (ip), vehicle: carboxymethylcellulose (CMC)) 0 of 4; under setting [1], 0 of 4; under setting [2], 0 of 4.

`CCNCCCCNCC`: the survivor count is 5 of 6 (dose: 100.0 mg/kg/injection, schedule: Q01DX009 (ip), vehicle: saline with Tween-80); 0 of 6 (dose: 200.0 mg/kg/injection, schedule: Q04DX003 (ip), vehicle: saline with Tween-80); 0 of 6 (dose: 400.0 mg/kg/injection, schedule: Q04DX003 (ip), vehicle: saline with Tween-80).

As for `CCOP(=O)(NCCCOC)OCC`, the survivor count reads like this: (dose: 6.25 mg/kg/injection, schedule: Q04DX003 (ip), vehicle: saline) 2 of 6; (dose: 12.5 mg/kg/injection, schedule: Q04DX003 (ip), vehicle: saline) 0 of 6; (dose: 25.0 mg/kg/injection, schedule: Q01DX001 (ip), vehicle: acetone) 3 of 6; (dose: 35.0 mg/kg/injection, schedule: Q01DX009 (ip), vehicle: acetone) 3 of 6; (dose: 50.0 mg/kg/injection, schedule: Q01DX001 (ip), vehicle: acetone) 0 of 6; (dose: 100.0 mg/kg/injection, schedule: Q01DX001 (ip), vehicle: acetone) 0 of 6. In addition, the survivor count runs as follows: (dose: 200.0 mg/kg/injection, schedule: Q01DX001 (ip), vehicle: acetone) 0 of 6; (dose: 400.0 mg/kg/injection, schedule: Q01DX001 (ip), vehicle: acetone) 0 of 6.

For `Cc1nc(Cl)c(C#N)c(C)c1[N+](=O)[O-]`, the survivor count under setting [3] is 1 of 6.

As for `Cc1cc(C)c(/C=N/O)c(C)c1`, the survivor count (dose: 200.0 mg/kg/injection, schedule: Q01DX009 (ip), vehicle: acetone) is on record as 6 of 6.

Regarding `CN1CCCC1c1cccnc1` (stereo not given), the survivor count (dose: 0.5 mg/kg/injection, schedule: Q01DX009 (ip), vehicle: saline) is 6 of 6; the survivor count (dose: 2.0 mg/kg/injection, schedule: Q01DX009 (ip), vehicle: saline) was 1 of 6 and 6 of 6; the survivor count (dose: 4.0 mg/kg/injection, schedule: Q01DX009 (ip), vehicle: saline) is 0 of 6 and 1 of 6; the survivor count (dose: 4.0 mg/kg/injection, schedule: Q01DX Z (ip), vehicle: saline) is 6 of 6.

As to `OCCCN1CCC2(CC1)SSC1(CCN(CCCO)CC1)S2`, the survivor count by setting is: (dose: 200.0 mg/kg/injection, schedule: Q01DX009 (ip), vehicle: saline) 5 of 6; under setting [3], 0 of 6.

Regarding `CCCCNC(=O)NNC(=O)CCCC(=O)NNC(=O)NCCCC`, the survivor count under setting [4] was 0 of 4.

`Nc1nc(N)c2nc(CNc3ccc(C(=O)NC(CCC(=O)O)C(=O)O)nc3)cnc2n1` (stereo not given): the T/C by setting is: (dose: 0.3 mg/kg/injection, schedule: Q01DX009 (ip), vehicle: Klucel (hydroxypropylcellulose) (HPC)) 143 % of control; (dose: 66.0 micrograms/kg/injection, schedule: Q01DX009 (ip), vehicle: Klucel (hydroxypropylcellulose) (HPC)) 130 % of control; (dose: 300.0 micrograms/kg/injection, schedule: Q01DX009 (ip), vehicle: Klucel (hydroxypropylcellulose) (HPC)) 144 % of control. Also, the survivor count was 6 of 6 (dose: 0.62 mg/kg/injection, schedule: Q01DX009 (ip), vehicle: Klucel (hydroxypropylcellulose) (HPC)); 5 of 6 (dose: 1.25 mg/kg/injection, schedule: Q01DX009 (ip), vehicle: Klucel (hydroxypropylcellulose) (HPC)); 5 of 6 (dose: 2.5 mg/kg/injection, schedule: Q01DX009 (ip), vehicle: Klucel (hydroxypropylcellulose) (HPC)); 3 of 6 and 4 of 6 (dose: 5.0 mg/kg/injection, schedule: Q01DX009 (ip), vehicle: Klucel (hydroxypropylcellulose) (HPC)); 0 of 6 (dose: 10.0 mg/kg/injection, schedule: Q01DX009 (ip), vehicle: Klucel (hydroxypropylcellulose) (HPC)); 1 of 6 (dose: 20.0 mg/kg/injection, schedule: Q01DX009 (ip), vehicle: Klucel (hydroxypropylcellulose) (HPC)). Also, under “dose: 40.0 mg/kg/injection, schedule: Q01DX009 (ip), vehicle: Klucel (hydroxypropylcellulose) (HPC)”, the survivor count is 2 of 6.

As to `O=CO.[Mn]`, the survivor count is recorded as 0 of 6 (dose: 100.0 mg/kg/injection, schedule: Q01DX001 (ip), vehicle: saline); 0 of 6 (dose: 200.0 mg/kg/injection, schedule: Q01DX001 (ip), vehicle: saline); 0 of 6 under setting [4].

On to `CCC1CCCCN1` (stereo not given), for which the T/C (dose: 20.0 mg/kg/injection, schedule: Q04DX002 (ip), vehicle: saline) is 128 % of control. For the same compound, the survivor count is 0 of 3 and 0 of 6 (dose: 100.0 mg/kg/injection, schedule: Q04DX002 (ip), vehicle: saline); 0 of 3 and 0 of 6 (dose: 200.0 mg/kg/injection, schedule: Q04DX002 (ip), vehicle: saline); 0 of 3 and 0 of 6 (dose: 400.0 mg/kg/injection, schedule: Q04DX002 (ip), vehicle: saline).

On to `O=[N+]([O-])c1ccc(Nc2ccccc2)c([N+](=O)[O-])c1`, for which, under “dose: 200.0 mg/kg/injection, schedule: Q04DX002 (ip), vehicle: Klucel (hydroxypropylcellulose) (HPC)”, the survivor count is on record as 3 of 3.
